Experimental data as given in PMC7286916.
Results are given in words; binding and its absence hold for the method and conditions named. Binding seen in cells or lysates may run through a third protein. Some entries that bind do so weakly or less than the wild type. For some assays here: Where a sequence is shown, tags or fusion partners need not be part of it.

By UniProt entry, the sequences of proteins in these tests, tags left out. Where a name states a change or a piece, a line headed by the entry shows the natural chain unless it says otherwise. Chains listed by the source or under a name are the forms on record and can include a tag or linker. Residues count along the entry.
UniProt P37231: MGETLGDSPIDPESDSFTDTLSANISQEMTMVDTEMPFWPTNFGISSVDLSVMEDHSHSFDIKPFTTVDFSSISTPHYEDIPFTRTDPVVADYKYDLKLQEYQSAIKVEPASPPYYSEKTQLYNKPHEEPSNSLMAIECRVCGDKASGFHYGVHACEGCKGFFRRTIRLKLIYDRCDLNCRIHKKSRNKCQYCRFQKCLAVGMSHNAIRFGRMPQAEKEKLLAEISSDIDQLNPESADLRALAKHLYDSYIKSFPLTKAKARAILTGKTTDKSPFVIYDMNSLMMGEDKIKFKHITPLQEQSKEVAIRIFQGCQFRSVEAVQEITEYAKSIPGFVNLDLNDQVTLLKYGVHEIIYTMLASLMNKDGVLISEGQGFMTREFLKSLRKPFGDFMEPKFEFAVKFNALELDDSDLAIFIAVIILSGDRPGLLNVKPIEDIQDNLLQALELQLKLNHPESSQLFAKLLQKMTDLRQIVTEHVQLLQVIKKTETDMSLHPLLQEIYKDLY
PPARγ, untagged, ectopic: residues 29-505 of P37231

Legend:
[1] = biological target: T1, MTMR7 (FL), untagged, ectopic (human) (UniProt Q9Y216); test: co-IP; ectopic proteins; HEK293T co-transfected with GFP-PPARγ and MTMR7 (FL) for 24 h; cytosolic lysates; IP with MTMR7 (#121222) or PPARγ (#7196) Ab-conjugated beads
T1 sequence: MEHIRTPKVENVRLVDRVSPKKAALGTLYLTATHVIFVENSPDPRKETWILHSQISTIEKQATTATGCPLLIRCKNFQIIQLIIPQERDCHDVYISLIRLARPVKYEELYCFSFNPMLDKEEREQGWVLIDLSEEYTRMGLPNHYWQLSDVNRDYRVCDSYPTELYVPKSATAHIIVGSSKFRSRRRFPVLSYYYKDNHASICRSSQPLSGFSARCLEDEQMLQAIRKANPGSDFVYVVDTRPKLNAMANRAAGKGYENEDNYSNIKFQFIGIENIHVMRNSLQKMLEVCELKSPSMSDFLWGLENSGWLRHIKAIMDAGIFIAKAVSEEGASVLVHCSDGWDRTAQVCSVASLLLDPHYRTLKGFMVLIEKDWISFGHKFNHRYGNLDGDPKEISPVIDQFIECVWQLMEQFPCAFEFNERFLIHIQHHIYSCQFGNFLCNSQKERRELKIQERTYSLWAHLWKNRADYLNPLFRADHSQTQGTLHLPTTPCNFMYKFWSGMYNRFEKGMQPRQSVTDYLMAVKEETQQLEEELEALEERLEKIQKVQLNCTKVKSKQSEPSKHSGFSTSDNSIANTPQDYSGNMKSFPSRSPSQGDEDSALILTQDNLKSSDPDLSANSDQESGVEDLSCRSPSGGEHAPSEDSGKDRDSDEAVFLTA

[2] = biological target: Peroxisome proliferator-activated receptor-gamma (PPARγ), endogenous (human (endogenous in SW480 and HCT116)) (UniProt P37231); test: co-IP; endogenous proteins; cytosolic lysates of normal cycling HCT116 cells after subcellular fractionation; IP with MTMR7 or PPARγ Ab-conjugated or unconjugated beads; IB with MTMR7 Ab
[3] = biological target: GFP-PPARγ (UniProt P37231); test: co-IP; ectopic proteins; HEK293T co-transfected with GFP-PPARγ and MTMR7 (FL) for 24 h; cytosolic lysates; IP with MTMR7 (#121222) or PPARγ (#7196) Ab-conjugated beads
[4] = biological target: GFP-PPARγ (UniProt P37231); test: proximity ligation; HEK293T co-transfected for 24 h with untagged PPARγ and GFP-MTMR7 FL, or with untagged MTMR7 FL and GFP-PPARγ; PPARγ (#2435) or MTMR7 (#121222) Ab together with GFP Ab; immunofluorescence microscopy
[5] = biological target: PPARγ, untagged, ectopic (UniProt P37231); test: as above

GFP-PPARγ (from UniProt P37231-2 1-477)
binding [1]: binds

B1: Myotubularin-related protein 7 (MTMR7), endogenous full-length 76 kDa (protein, UniProt Q9Y216 1-660)
chain: T1 sequence
binding [2]: binds

B2: MTMR7 (FL), untagged, ectopic (protein, UniProt Q9Y216-1 1-660)
chain: T1 sequence
binding [3]: binds
binding [4]: binds

B3: GFP-MTMR7 FL (protein, UniProt Q9Y216-1 1-660)
chain: T1 sequence
binding [5]: binds
